Here are results for one compound from patent publication US20260286396A1, “AXL KNOCK OUT CAR T CELLS AND METHODS FOR USE THEREOF” (priority 2023, published 2026).

In this data set the test system is CART19 cells. As to the kind of experiment: RNA sequencing of CART19 cells with Ingenuity pathway analysis (pathways, upstream regulators). The class given is cell-based, human. The method, then: CART19 cells were isolated using CD4 and CD8 microbeads to […] the JeKo-1 target cells; this isolation step was performed twice to eliminate the possible contamination of JeKo-1 cells. RNA was isolated from the CART19 cells using QIAGEN RNEASY® Plus Mini Kit. RNA was further treated with DNase I (QIAGEN) and purified using RNA Clean & Concentrator (Zymo Research). […] The fastq files were viewed in FastQC to check for quality (Cox et al., Mol Ther., 29 (4): 1529-1540, 2020). After verifying the lack of adapter sequences with FastQC, Cutadapt (Martin, EMBnet, 17:10-12, 2011) was used to filter for reads greater than 32 base pairs. Output files were re-checked for quality using FastQC. The latest human reference genome (GRCh38.p13) was downloaded from NCBI. Genome index files were generated using STAR (Cox et al. 2020, supra, and Dobin et al., Bioinformatics, 29:15-21, 2012). Paired end reads from fastq files were mapped to the genome for each condition. HTSeq was used to generate expression counts for each gene (Cox et al. 2020, supra; and Putri et al., Bioinformatics, 38:2943-2945, 2022). […] The disruption efficiency of the CRISPR/Cas9 GM-CSF knockout was determined using targeted sequencing through PCR and TIDE analysis (software available at tide.nki.nl) as described elsewhere (Sakemura et al. 2021, supra).
RNA sequencing of CART19 cells was then performed. […] Data were analyzed with the use of QIAGEN Ingenuity Pathway Analysis (IPA) (digitalinsights.qiagen.com/IPA; Krämer et al., Bioinformatics 30 (4): 523-530, 2014).

The mark [1] stands for this setting: 30 nM TP-0903, JeKo-1 stimulation 24 hours.
[2] abbreviates: 30 nM TP-0903, irradiated JeKo-1, 5 days.

Consider `CN1CCN(Cc2ccc(Nc3ncc(Cl)c(Nc4ccccc4S(=O)(=O)N(C)C)n3)cc2)CC1` [TP-0903, Dubermatinib], for which, under setting [1], the significantly downregulated genes turned out to be 414 and the significantly upregulated genes is given as 322. Under setting [2], the “downregulated genes (heatmap, FIG. 12C)” value amounted to 34 and the “upregulated genes (heatmap, FIG. 12C)” value came out at 85.
